According to publication PMC9366055:

Assays:
[1] = target: T1, GST-HpaA (X. euvesicatoria) (UniProt Q9WWF9); assay: pull-down; GST or GST fusion from E. coli BL21 (DE3) lysate immobilised on glutathione sepharose, washed, incubated with a bacterial lysate containing the c-Myc-tagged partner for 2 h at 4°C; eluted with Laemmli buffer; immunoblot with c-Myc- and GST-specific antibodies; only the target purified
T1 sequence: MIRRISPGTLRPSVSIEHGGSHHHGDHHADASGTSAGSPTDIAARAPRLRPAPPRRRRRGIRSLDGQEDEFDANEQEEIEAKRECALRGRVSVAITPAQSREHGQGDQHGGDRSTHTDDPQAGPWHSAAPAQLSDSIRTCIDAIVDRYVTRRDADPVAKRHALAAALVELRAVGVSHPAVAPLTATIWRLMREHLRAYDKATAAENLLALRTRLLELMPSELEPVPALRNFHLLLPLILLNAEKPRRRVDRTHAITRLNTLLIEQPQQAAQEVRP

[2] = target: T2, HpaA-c-Myc (expressed in X. euvesicatoria strain 85*) (X. euvesicatoria strain 85-10) (UniProt Q9WWF9); assay: co-IP; lysate of X. euvesicatoria strain 85* with or without HpaA-c-Myc, grown under T3S-permissive conditions (MA pH 5.3), PBS with 0.1% Nonidet-P40; anti-c-Myc antibody and protein G agarose over night at 4°C; immunoblot with c-Myc- and HrcN-specific antibodies
T2 sequence: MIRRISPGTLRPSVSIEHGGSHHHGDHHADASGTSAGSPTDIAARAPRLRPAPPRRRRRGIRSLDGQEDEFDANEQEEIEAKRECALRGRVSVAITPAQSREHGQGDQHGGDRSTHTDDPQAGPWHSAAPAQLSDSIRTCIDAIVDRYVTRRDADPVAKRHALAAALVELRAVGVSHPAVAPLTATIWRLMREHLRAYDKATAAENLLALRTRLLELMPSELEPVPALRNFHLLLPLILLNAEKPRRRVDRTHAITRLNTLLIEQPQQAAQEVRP

[3] = target: GST-HpaC (X. euvesicatoria); assay: pull-down; GST or GST fusion from E. coli BL21 (DE3) lysate immobilised on glutathione sepharose, washed, incubated with a bacterial lysate containing the c-Myc-tagged partner for 2 h at 4°C; eluted with Laemmli buffer; immunoblot with c-Myc- and GST-specific antibodies; only the target purified
[4] = target: GST-HrcL (X. euvesicatoria); assay: as above
[5] = target: GST-HrcN (X. euvesicatoria); assay: as above
[6] = target: GST-HrcU (X. euvesicatoria); assay: as above
[7] = target: HrcUC derivative with C-terminal T25 fusion partner (X. euvesicatoria strain 85-10); assay: two-hybrid; BACTH: T18 and T25 fusions in E. coli BTH101, spotted on LB plates with X-gal and 2 mM IPTG, read after five to 6 days at room temperature
[8] = target: T18-HrcN (X. euvesicatoria); assay: as above
[9] = target: HrcUC derivative with C-terminal T18 fusion partner (X. euvesicatoria strain 85-10); assay: as above
[10] = target: T18-HrcL (X. euvesicatoria); assay: as above

HpaC-c-Myc (X. euvesicatoria)
binding [1]: binds

HrcL-c-Myc (X. euvesicatoria)
binding [1]: binds

HrcN (enzyme)
binding [2]: binds

B1: HpaA-c-Myc (protein, UniProt Q9WWF9 1-275)
chain: MIRRISPGTLRPSVSIEHGGSHHHGDHHADASGTSAGSPTDIAARAPRLRPAPPRRRRRGIRSLDGQEDEFDANEQEEIEAKRECALRGRVSVAITPAQSREHGQGDQHGGDRSTHTDDPQAGPWHSAAPAQLSDSIRTCIDAIVDRYVTRRDADPVAKRHALAAALVELRAVGVSHPAVAPLTATIWRLMREHLRAYDKATAAENLLALRTRLLELMPSELEPVPALRNFHLLLPLILLNAEKPRRRVDRTHAITRLNTLLIEQPQQAAQEVRP
binding [3]: binds
binding [4]: binds
binding [5]: binds
binding [6]: binds

B2: T18-HpaA (protein, UniProt Q9WWF9 1-275)
chain: MIRRISPGTLRPSVSIEHGGSHHHGDHHADASGTSAGSPTDIAARAPRLRPAPPRRRRRGIRSLDGQEDEFDANEQEEIEAKRECALRGRVSVAITPAQSREHGQGDQHGGDRSTHTDDPQAGPWHSAAPAQLSDSIRTCIDAIVDRYVTRRDADPVAKRHALAAALVELRAVGVSHPAVAPLTATIWRLMREHLRAYDKATAAENLLALRTRLLELMPSELEPVPALRNFHLLLPLILLNAEKPRRRVDRTHAITRLNTLLIEQPQQAAQEVRP
binding [7]: no binding

B3: HpaA-T18 (protein, UniProt Q9WWF9 1-275)
chain: MIRRISPGTLRPSVSIEHGGSHHHGDHHADASGTSAGSPTDIAARAPRLRPAPPRRRRRGIRSLDGQEDEFDANEQEEIEAKRECALRGRVSVAITPAQSREHGQGDQHGGDRSTHTDDPQAGPWHSAAPAQLSDSIRTCIDAIVDRYVTRRDADPVAKRHALAAALVELRAVGVSHPAVAPLTATIWRLMREHLRAYDKATAAENLLALRTRLLELMPSELEPVPALRNFHLLLPLILLNAEKPRRRVDRTHAITRLNTLLIEQPQQAAQEVRP
binding [7]: no binding

B4: HpaA-T25 (protein, UniProt Q9WWF9 1-275)
chain: MIRRISPGTLRPSVSIEHGGSHHHGDHHADASGTSAGSPTDIAARAPRLRPAPPRRRRRGIRSLDGQEDEFDANEQEEIEAKRECALRGRVSVAITPAQSREHGQGDQHGGDRSTHTDDPQAGPWHSAAPAQLSDSIRTCIDAIVDRYVTRRDADPVAKRHALAAALVELRAVGVSHPAVAPLTATIWRLMREHLRAYDKATAAENLLALRTRLLELMPSELEPVPALRNFHLLLPLILLNAEKPRRRVDRTHAITRLNTLLIEQPQQAAQEVRP
binding [8]: binds
binding [9]: no binding
binding [10]: binds weakly

These are yes or no findings as the source states them, for the method shown. For part of these data: A result given as binding can be weak or reduced; the word gives no strength. For part of these data: In cells and extracts the contact can be indirect. For part of these data: Tags and fused reporters may be left off the sequences shown.
